## Results of single-concentration screens

Sequences of proteins named here, by UniProt entry; tags and fusion partners are left off. Residues count along the entry.
UniProt Q8IDJ8, 1-583: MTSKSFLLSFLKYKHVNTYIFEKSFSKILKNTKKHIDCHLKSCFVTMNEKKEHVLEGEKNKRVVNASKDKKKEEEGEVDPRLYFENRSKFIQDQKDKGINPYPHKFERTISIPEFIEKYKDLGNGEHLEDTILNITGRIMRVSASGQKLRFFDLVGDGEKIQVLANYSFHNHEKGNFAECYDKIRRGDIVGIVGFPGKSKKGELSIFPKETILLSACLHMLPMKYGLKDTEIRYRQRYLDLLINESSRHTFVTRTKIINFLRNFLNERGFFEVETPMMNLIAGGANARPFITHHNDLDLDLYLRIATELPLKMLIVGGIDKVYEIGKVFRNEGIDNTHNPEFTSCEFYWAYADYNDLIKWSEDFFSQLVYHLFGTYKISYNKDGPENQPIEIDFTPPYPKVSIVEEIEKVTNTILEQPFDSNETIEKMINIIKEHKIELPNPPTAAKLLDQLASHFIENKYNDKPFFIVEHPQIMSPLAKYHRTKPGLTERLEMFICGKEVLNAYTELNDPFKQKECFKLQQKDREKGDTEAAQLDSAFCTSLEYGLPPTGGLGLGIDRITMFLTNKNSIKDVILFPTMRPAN

Values are the deposited “Percent Effect”, in %.
The controls that fix the scale are not given in the record; negative values are as filed.
Compounds were drawn at random from those tested, without regard to their results.

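Enzyme assay of the cytosolic lysyl-tRNA synthetase in 384-well plates, read by luminescence. Target: Lysine-tRNA ligase, Plasmodium falciparum 3D7 (UniProt Q8IDJ8). Concentration: 30 µM. Direction is inferred from only a few compounds that gave an IC50; most scored high, so higher reads as stronger inhibition. Of about 69,000 compounds tested this way, about 49 (0.071%) reached 50% or more in at least one test.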

Compound: CN(C)C(=O)c1cn2cc(-c3ccccc3Cl)n(CC3CC3)c(=O)c2n1
Percent Effect: 1.937

Compound: CC(C)c1noc(CN(Cc2cccs2)C2CC2)n1
Percent Effect: -6.522

Compound: CN(Cc1cc2c(cc1OC(F)F)OCO2)Cc1nccn1C
Percent Effect: 3.746

Compound: Cc1cc(CC(C)NC2CCN(CC(C)C)CC2)[nH]n1 (stereo unspecified)
Percent Effect: -0.8933

Compound: NS(=O)(=O)c1cnn(CC(=O)Nc2c(Cl)cccc2Cl)c1
Percent Effect: 6.519

Compound: O=C(Cn1cc(C2CC2)nn1)NC(c1cc(F)ccc1F)C1CC1 (stereo unspecified)
Percent Effect: 4.279

Compound: CCc1nccn1C1CCCN(C(=O)c2ccc3[nH]c(=O)[nH]c3c2)C1 (stereo unspecified)
Percent Effect: 0.3594

Compound: CCOC(=O)c1sc(NC(=O)CCCC(=O)O)c(C#N)c1C
Percent Effect: -3.064

Compound: c1ccc(Cc2nc(CNC3CCOC4(CCOCC4)C3)no2)cc1 (stereo unspecified)
Percent Effect: 0.2278

Compound: Fc1ccc(-c2noc(CN3CCC(c4cc[nH]n4)CC3)n2)cc1
Percent Effect: 7.954

Compound: Cc1cc(CN2CCN(C(=O)C(C(C)C)n3cncn3)CC2)no1 (stereo unspecified)
Percent Effect: 6.271

Compound: CSc1ccc(C(=O)N2CC(=O)N(CC(C)(C)C)CC(O)C2)cc1 (stereo unspecified)
Percent Effect: 5.801

Compound: O=c1c2ccc(Cl)cc2ncn1CCCN1CCCCC1CO (stereo unspecified)
Percent Effect: 1.562

Compound: CN(Cc1ccncc1)C(=O)[C@H]1CSCN1C(=O)OC(C)(C)C
Percent Effect: -0.5394

Compound: Cc1nccc([C@@H]2C[C@@H]3CCN(Cc4ccco4)C[C@H]3O2)n1
Percent Effect: 7.965

Compound: CCC(NS(=O)(=O)c1ccc(C(=O)NC2CC2)cc1)c1cnn(C)c1 (stereo unspecified)
Percent Effect: 5.938

Compound: Cc1nn(C)c2ncnc(N3CCCC(OCc4cccnc4)C3)c12 (stereo unspecified)
Percent Effect: -0.232

Compound: CCNC(=O)N1CCC2(C1)c1ccccc1S(=O)(=O)N2CCC(C)C (stereo unspecified)
Percent Effect: -1.637

Compound: COc1ccccc1N1CCN(C(=O)Cn2nc(C)cc2C)CC1(C)C
Percent Effect: 1.816

Compound: CC(C)[C@H](N)C(=O)N1CCCC(C2=Nc3ccccc3S(=O)(=O)N2)C1 (stereo partly specified)
Percent Effect: 1.627

Compound: COc1ccc(F)c(CN2CCCC(O)(CNCC(C)(C)C)C2=O)c1 (stereo unspecified)
Percent Effect: 0.8586

Compound: CC(c1cccs1)N(C)Cc1cnc(-c2ccccn2)nc1 (stereo unspecified)
Percent Effect: 4.763

Compound: O=C(c1cccc(CNS(=O)(=O)c2ccc(F)cc2)c1)N1CCCC1
Percent Effect: 0.5761

Compound: CO[C@H]1CO[C@@]2(CCCN(S(=O)(=O)c3ccccc3)C2)C1
Percent Effect: 5.969

Compound: Cc1cc(C)c(CNC(=O)NCC(O)COc2ccccc2)c(=O)[nH]1 (stereo unspecified)
Percent Effect: 2.37

Compound: CCn1cc(C(=O)NCc2csc(Br)c2)cn1
Percent Effect: 7.234

Compound: CC(C)(C)S(=O)(=O)CCNC(=O)c1ccc2cc[nH]c2c1
Percent Effect: -0.03705

Compound: CN(C)c1ncc(-c2ccc(C(N)=O)cc2)c(C2CCNC2)n1 (stereo unspecified)
Percent Effect: 1.385

Compound: O=C(CN1CCCCCC1)NCCSc1cnn[nH]1
Percent Effect: 3.758

Compound: O=C(Cc1ccc2c(c1)OCC2)Nc1nc(C(F)(F)F)n[nH]1
Percent Effect: 3.726

Compound: CCc1[nH]c2c(CNC(=O)C3CCS(=O)(=O)CC3)cc(C)cc2c1C
Percent Effect: 5.092

Compound: CCn1cc(CN(C)c2nc(C)c3ccc(S(C)(=O)=O)cc3n2)cn1
Percent Effect: -2.882

Compound: O=C(c1ccc2[nH]ccc2c1)N1Cc2nc(CN3CCCC3)oc2C1
Percent Effect: 3.63

Compound: Cc1cnn(CC2CCCN2Cc2noc(-c3ccccc3)n2)c1 (stereo unspecified)
Percent Effect: 6.64

Compound: CN(Cc1noc(C(C)(C)C)n1)Cc1ccccc1N1CCCCC1
Percent Effect: 2.776

Some entries from above, unchanged:

Compound	Percent Effect
O=C(c1ccc2[nH]ccc2c1)N1Cc2nc(CN3CCCC3)oc2C1	3.63
CC(C)c1noc(CN(Cc2cccs2)C2CC2)n1	-6.522

Measurements from “University of Dundee, Small-Polar-MMV Screening Library” (2021), ChEMBL document CHEMBL3988442.